Reference: article doi:10.1101/560391 (bioRxiv, 2019)
Residue numbers refer to the chain shown, from its start. In names and notes the source's numbering stands. Like-named read-outs stand apart in the source and are kept apart here. These are yes or no findings as the source states them, for the method shown. Some binding calls cover weakened binding; strength is not graded here. For some of these results: Where a sequence is shown, tags or fusion partners need not be part of it. Values belong to the molecule of their own block, whether it stands above or below them.

Chains of the proteins cited; added tags and fusions are not shown. Lines headed by an entry give the natural chain unless they say otherwise; changes in a name come on top.
UniProt Q9V6Q2, whole entry: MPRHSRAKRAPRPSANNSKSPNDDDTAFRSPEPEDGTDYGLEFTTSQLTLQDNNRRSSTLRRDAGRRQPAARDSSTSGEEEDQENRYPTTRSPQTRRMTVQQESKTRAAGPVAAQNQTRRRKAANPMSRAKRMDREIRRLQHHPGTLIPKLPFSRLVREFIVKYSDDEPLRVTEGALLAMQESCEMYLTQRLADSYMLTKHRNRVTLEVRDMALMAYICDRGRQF

How the values were obtained:
Experiment in all cases: LacI/LacO tethering and co-recruitment in cells
[1] = biological target: dCENP-A-GFP-LacI (Drosophila) (UniProt Q9V6Q2)
[2] = biological target: CAL1-GFP-LacI (Drosophila) (UniProt Q9VEN2)
[3] = biological target: T1, GFP-LacI-dCENP-C (Drosophila) (UniProt Q9VHP9)
T1 sequence: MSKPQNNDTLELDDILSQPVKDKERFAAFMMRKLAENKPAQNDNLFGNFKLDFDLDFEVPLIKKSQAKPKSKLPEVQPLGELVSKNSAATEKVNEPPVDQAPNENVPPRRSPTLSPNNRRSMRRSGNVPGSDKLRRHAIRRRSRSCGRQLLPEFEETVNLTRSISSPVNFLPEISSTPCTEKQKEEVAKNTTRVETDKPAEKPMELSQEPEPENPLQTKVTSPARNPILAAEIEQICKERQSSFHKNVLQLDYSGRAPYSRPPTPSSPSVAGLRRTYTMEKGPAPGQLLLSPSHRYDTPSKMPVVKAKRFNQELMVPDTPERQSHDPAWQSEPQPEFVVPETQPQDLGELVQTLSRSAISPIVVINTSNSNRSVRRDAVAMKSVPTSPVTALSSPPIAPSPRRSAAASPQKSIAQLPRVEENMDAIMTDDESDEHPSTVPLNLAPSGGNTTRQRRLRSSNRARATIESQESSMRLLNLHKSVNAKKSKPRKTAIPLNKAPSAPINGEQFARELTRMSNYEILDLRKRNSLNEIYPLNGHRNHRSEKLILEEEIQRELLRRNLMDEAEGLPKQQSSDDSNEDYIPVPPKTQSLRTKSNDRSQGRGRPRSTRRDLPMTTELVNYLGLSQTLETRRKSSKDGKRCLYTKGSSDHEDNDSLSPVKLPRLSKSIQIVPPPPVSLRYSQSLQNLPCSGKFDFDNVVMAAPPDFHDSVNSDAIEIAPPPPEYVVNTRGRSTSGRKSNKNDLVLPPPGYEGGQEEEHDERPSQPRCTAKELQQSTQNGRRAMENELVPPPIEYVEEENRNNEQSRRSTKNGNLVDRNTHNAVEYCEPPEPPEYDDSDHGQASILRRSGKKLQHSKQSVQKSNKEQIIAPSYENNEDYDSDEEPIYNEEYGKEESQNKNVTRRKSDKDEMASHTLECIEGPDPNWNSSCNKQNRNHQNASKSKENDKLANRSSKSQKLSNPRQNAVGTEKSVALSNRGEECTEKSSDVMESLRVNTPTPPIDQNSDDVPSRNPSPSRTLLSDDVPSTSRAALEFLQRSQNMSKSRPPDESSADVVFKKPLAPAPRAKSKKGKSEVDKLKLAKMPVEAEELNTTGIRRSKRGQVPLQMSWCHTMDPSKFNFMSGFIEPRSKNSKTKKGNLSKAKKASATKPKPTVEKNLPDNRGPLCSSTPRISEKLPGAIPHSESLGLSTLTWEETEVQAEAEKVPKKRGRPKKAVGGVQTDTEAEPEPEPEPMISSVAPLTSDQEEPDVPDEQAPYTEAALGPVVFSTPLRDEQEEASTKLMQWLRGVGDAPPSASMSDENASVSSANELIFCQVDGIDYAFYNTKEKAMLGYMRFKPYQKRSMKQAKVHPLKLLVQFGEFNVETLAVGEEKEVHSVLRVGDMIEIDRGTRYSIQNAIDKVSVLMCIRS

[4] = biological target: T2, GFP-LacI-dCENP-C(1009-1411) (Drosophila) (UniProt Q9VHP9)
T2 sequence: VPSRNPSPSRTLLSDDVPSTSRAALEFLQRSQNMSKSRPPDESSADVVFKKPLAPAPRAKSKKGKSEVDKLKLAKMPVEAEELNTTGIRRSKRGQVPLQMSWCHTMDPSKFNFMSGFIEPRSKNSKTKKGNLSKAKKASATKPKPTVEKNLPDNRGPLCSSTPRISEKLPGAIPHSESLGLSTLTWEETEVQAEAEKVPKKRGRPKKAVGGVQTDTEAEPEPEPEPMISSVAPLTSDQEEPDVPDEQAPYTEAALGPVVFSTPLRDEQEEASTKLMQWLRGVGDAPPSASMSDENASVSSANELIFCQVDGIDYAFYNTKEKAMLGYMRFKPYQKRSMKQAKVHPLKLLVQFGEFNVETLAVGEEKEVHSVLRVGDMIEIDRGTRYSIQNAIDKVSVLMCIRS

[5] = biological target: T1, GFP-LacI-dCENP-C (Drosophila); remark: listed apart in the source
[6] = biological target: CAL1-GFP-LacI (Drosophila) (UniProt Q9VEN2); remark: listed apart in the source

Molecule: CAL1(1-160)-HA (from UniProt Q9VEN2 1-160) (domain or fragment)
binding [1]: binds
binding [2]: no binding

Molecule: CAL1(1-407)-HA (from UniProt Q9VEN2 1-407) (domain or fragment)
binding [2]: binds

Molecule: CAL1(101-407)-HA (from UniProt Q9VEN2 101-407) (domain or fragment)
binding [2]: binds

Molecule: CAL1(392-722)-HA (from UniProt Q9VEN2 392-722) (domain or fragment)
binding [2]: no binding

Molecule: dCENP-A-HA (from UniProt Q9V6Q2 1-225)
binding [3]: binds weakly

Molecule: dCENP-A-V5 (from UniProt Q9V6Q2 1-225)
binding [2]: binds

B1: HA-tagged dCENP-C(1009-1411) (domain or fragment, UniProt Q9VHP9 1009-1411)
chain: T2 sequence
binding [5]: binds

B4: HA-tagged full length dCENP-C L1357E L1406E (protein, UniProt Q9VHP9 1-1411)
chain: T1 sequence with L1357E, L1406E
binding [5]: no binding
binding [6]: no binding

Results, then the molecule that gave them:

binding [3]: binds
binding [4]: binds
binding [2]: no binding
Molecule: CAL1(699-979)-HA (from UniProt Q9VEN2 699-979) (domain or fragment)

binding [5]: binds
binding [6]: binds
B2: HA-tagged dCENP-C(1263-1411) (domain or fragment, UniProt Q9VHP9 1263-1411)
chain: LGPVVFSTPLRDEQEEASTKLMQWLRGVGDAPPSASMSDENASVSSANELIFCQVDGIDYAFYNTKEKAMLGYMRFKPYQKRSMKQAKVHPLKLLVQFGEFNVETLAVGEEKEVHSVLRVGDMIEIDRGTRYSIQNAIDKVSVLMCIRS

binding [5]: no binding
B3: HA-tagged dCENP-C(1263-1411) L1357E L1406E (domain or fragment, UniProt Q9VHP9 1263-1411)
chain: B2 chain with L95E, L144E
